{"source": "patent US10975354B2", "about": "“Transdifferentiated cell populations and methods of use thereof” (ORGENESIS LTD., priority 2017, dated 2021)", "key": {"[1]": {"system": "eGFP+ cells", "test": "Li pre-treatment for 48 hours before transdifferentiation of eGFP+ cells", "type": "cell-based, human"}, "[2]": {"system": "DsRed+ cells", "test": "Wnt activation 48 hours before reprogramming of DsRed+ cells", "type": "cell-based, human", "settings": "relative to pTFs alone"}}, "note": "At least one compound was matched to its structure with a doubt left.", "data": [{"smiles": "[Li]", "note": "[Li, Lithium]", "values": [{"measurement": "insulin secretion", "setting": "[1]; 10 mM Li for 48 hours prior to pTFs, then removed, 17.5 mM glucose, ELISA", "value": "increase"}, {"measurement": "expression of pancreatic genes", "setting": "[1]; 10 mM Li for 48 hours prior to pTFs, then removed, Real-Time PCR", "value": "increase"}, {"measurement": "endogenous PDX-1 expression levels", "setting": "[1]; 10 mM Li pre-treatment", "value": "not upregulated"}, {"measurement": "reprogramming efficiency in DsRed cells", "setting": "[2]", "value": "does not increase"}]}]}
